# PubChem BioAssay AID504467 (National Center for Advancing Translational Sciences (NCATS), 2011)
# Screen size: about 330,000 compounds; about 7,700 (2.3%) were called active. Inconclusive means that the source gave no clear call. Such entries were picked first, then a sample of the others. The call rests on the fitted dose curve; in most records, active means well fitted inhibition curve with a large enough effect; inconclusive means small, poorly fitted or top-dose-only effect, or effect the other way; inactive means flat fitted curve, though single readings scatter. A potency beside an inconclusive call is a rough fit, not a confirmed value.
# Test: qHTS screen for small molecules that inhibit ELG1-dependent DNA repair in human embryonic kidney (HEK293T) cells expressing luciferase-tagged ELG1; further: nearly all actives have a fitted effect of over 55% in size
# Settings: HEK293T ELG1-luciferase reporter, luminescence, 16 h, DNA damage induced by 5-fluorouridine; series mostly up to 46.1 µM
# Outline: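 Cells (2,000 per well) received 5-fluorouridine plus test compound or DMSO and were incubated 16 hr at 37 °C, 5% CO2. Luciferase activity was read by luminescence 30 min after ONE-Glo addition; signal suppression marked inhibition of damage-induced ELG1 function.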
# Potency means the concentration at half of the fitted maximal effect.
row,Compound,Potency
1,Cc1c(N=NC2=C(O)CC(C)(C)CC2=O)c(=O)n(-c2ccccc2)n1C,"inconclusive: 6.51 µM [inhibitor, partial curve, poor fit]"
2,Cc1nc2oc3ccccc3c(=O)c2cc1C(=O)O,"inconclusive: 23.1 µM [activator, single point]"
3,Cc1ncc(/C=C2\C(=O)Nc3ccccc32)[nH]1,"inconclusive: 29.1 µM [activator, single point]"
4,O=C(Nc1ccc(Br)cn1)c1cccc(S(=O)(=O)N2CCCC2)c1,"inconclusive: 29.1 µM [inhibitor, single point]"
5,Cc1sc2nc(CN(CCc3ccccc3)C(=O)c3ccco3)[nH]c(=O)c2c1C,"inconclusive: 7.31 µM [inhibitor, partial curve, poor fit]"
6,O=C(COc1ncnc2ccccc12)c1ccc(Cl)cc1,"inconclusive: 20.6 µM [activator, partial curve]"
7,COc1ccc(CN2CCCC(C(=O)c3cccc(OC(C)C)c3)C2)cc1Cn1cccn1 (configuration not stated),"inconclusive: 20.6 µM [inhibitor, single point]"
8,CCc1cc(CNC(=O)c2cc(COc3ccc(C)nc3)on2)on1,"inconclusive: 20.6 µM [activator, partial curve]"
9,Cc1cc(NC(=O)c2noc3c2CCCC3)no1,"inconclusive: 20.6 µM [activator, partial curve]"
10,COC(=O)c1c(NC(=O)COC(=O)CNC(=O)c2ccco2)sc(C)c1C,inactive
11,COn1c(SC2CCCCC2)nc2ccccc2c1=O,"inconclusive: 14.6 µM [activator, single point]"
12,CC(=Nc1cccc(O)c1)c1sc2ccccc2c1O,"inconclusive: 2.06 µM [activator, partial curve]"
13,Cc1cc(S(=O)(=O)Cc2noc(-c3c(C)noc3C)n2)c(C)cc1Cl,"inconclusive: 29.1 µM [inhibitor, single point]"
14,O=C(C1COc2ccccc2O1)N1CCN(c2ccc([N+](=O)[O-])cc2)CC1 (configuration not stated),"inconclusive: 5.17 µM [inhibitor, single point]"
15,CCC(=O)NC(c1ccccc1)c1c(O)ccc2ccccc12 (configuration not stated),inactive
16,COc1ccc(Nc2cc(=O)oc3ccccc23)cc1,active: 4.61 µM
17,CC(C)(C)c1ccc(N2C(=O)Cc3c2nc(N)c(C#N)c3N)cc1,"inconclusive: 11.6 µM [activator, partial curve, poor fit]"
18,Cc1cccc(CC2S/C(=N/N=C/c3ccco3)NC2=O)c1 (configuration not stated),inactive
19,O=C(COC(=O)c1ccc(Cl)c(S(=O)(=O)NCc2ccccc2)c1)NCC1CCCO1 (configuration not stated),inactive
20,Cc1cc(C(=O)CSc2nc(N)cc(N)n2)c(C)n1CCc1ccc(F)cc1,"inconclusive: 29.1 µM [inhibitor, single point]"
21,COc1ccccc1N1CCN(C(=O)c2nn(-c3ccccc3OC)c(=O)c3ccccc23)CC1,"inconclusive: 9.2 µM [inhibitor, single point]"
22,COc1ccc(CC(=O)NCc2nnc(SCc3ccc(C)cc3)n2C)cc1,"inconclusive: 18.4 µM [inhibitor, partial curve, poor fit]"
23,COc1ccc2[nH]c(=O)c(CN(C(=O)c3cccnc3)c3ccc(C)cc3)cc2c1,inactive
24,CCCCN(CC)Cc1ccc(CNC(=O)Nc2ccc(OC)cc2OC)o1,"inconclusive: 0.326 µM [activator, partial curve, poor fit]"

row,Compound,Potency
1,C[C@@H]1COC(=O)[C@@H](Cc2ccc(F)cc2)C/C=C\C[C@@H](CC(=O)NCCO)C(=O)N1,inactive
2,COc1ccc(CCNC(=O)CCn2c(=O)c3cccn3c3ccc(F)cc32)c(OC)c1OC,"inconclusive: 29.1 µM [inhibitor, single point]"
3,Cc1nn2c(NCc3ccccn3)c3c(nc2c1-c1ccccc1)CCC3,active: 10.3 µM
4,COc1ccc(CCn2c(C)cc(C(=O)CN3C(=O)C(=O)N(Cc4ccco4)C3=O)c2C)cc1,inactive
5,COc1ccccc1-c1nnc(SCC(=O)Nc2c(Cl)cccc2Cl)o1,inactive
6,CC(=O)Nc1ccc2c(c1)nc1n2CCSC1,"inconclusive: 20.6 µM [activator, single point]"
7,C/C(NC(=O)c1ccccc1)=C1/C(=O)CC2C1C2(C)C (configuration not stated),"inconclusive: 18.4 µM [activator, partial curve]"
8,COc1cc(NC(=O)c2ccc(S(=O)(=O)N(C)c3ccccc3OC)cc2)cc(OC)c1,active: 14.6 µM
9,CC1(c2ccc3c(c2)OCO3)NC(=O)N(CC(=O)Nc2ccccc2[N+](=O)[O-])C1=O (configuration not stated),inactive
10,N#C/C(=C\c1c(Oc2ccc(Cl)cc2)nc2ccccn2c1=O)C(=O)NC1CCS(=O)(=O)C1 (configuration not stated),inactive
11,CC(CN1CCCCC1)OC(=O)c1ccc2c(c1)OCCO2 (configuration not stated),"inconclusive: 16.4 µM [activator, single point]"
12,Cc1ccc2oc(-c3ccc(NC(=O)CC(C)C)cc3)nc2c1,"inconclusive: 3.66 µM [activator, partial curve]"
13,COc1cc(C(=O)N(CCc2ccccc2)C2=CC3CCC(C2)N3C)cc(OC)c1OC (configuration not stated),inactive
14,CCCN(C(=O)/C=C/c1ccc(S(=O)(=O)N(CC)CC)cc1)C1CCS(=O)(=O)C1 (configuration not stated),inactive
15,CC(C)CCNC(=O)C(=O)NCCC1=CCCCC1,"inconclusive: 20.6 µM [activator, partial curve]"
16,CC1Cc2nc(SCC(=O)N3CCN(c4ccccc4)CC3)n(C)c(=O)c2S1 (configuration not stated),inactive
17,c1ccc(OCc2nc(-c3ccncc3)no2)cc1,"inconclusive: 23.1 µM [activator, single point]"
18,CNc1nc(N)c(C(=O)Nc2cc(C)on2)s1,"inconclusive: 14.6 µM [activator, partial curve]"
19,Cc1c(CCO)c(=O)[nH]n1C(=O)c1c(F)cccc1F,"inconclusive: 29.1 µM [activator, single point]"
20,O=C(c1ccc(-c2ccccc2)cc1)N1CCN(c2ccccn2)CC1,inactive
21,CC(C)(C)c1ccc(C(=O)NC(=S)N2CCOCC2)cc1,"inconclusive: 6.51 µM [activator, partial curve]"
22,CN(C)S(=O)(=O)c1ccc(Cl)c(NC(=O)COC(=O)c2cc(-c3ccccc3)nc3ccccc23)c1,"inconclusive: 8.2 µM [inhibitor, partial curve, poor fit]"
23,OC(CNCCc1ccc(C(F)(F)F)cc1)COC(c1ccccc1)c1ccccc1 (configuration not stated),"inconclusive: 16.4 µM [inhibitor, partial curve, poor fit]"
24,CCOc1ncccc1C(=O)N(CC)CC(=O)NCc1ccc(F)cc1,"inconclusive: 5.8 µM [inhibitor, partial curve, poor fit]"

row,Compound,Potency
1,COCCn1c(-c2ccccc2)nc2oc3ccccc3c(=O)c2c1=O,inactive
2,CC(=O)c1sc(N/N=C\c2cccc(Br)c2)nc1C,"inconclusive: 18.4 µM [inhibitor, single point]"
3,CN(C)c1ccc(/C=C/c2ccc3c4ccccc4ccc3[n+]2-c2ccccc2)cc1,active: 1.46 µM
4,CC(=O)c1ccc(NC(=O)c2noc(C(C)C)c2[N+](=O)[O-])cc1,inactive
5,COc1cc(SC)ccc1C(=O)N1CCN(Cc2ccccc2)CC1,"inconclusive: 29.1 µM [inhibitor, single point]"
6,Cc1nc2c(S(=O)(=O)c3ccccc3)cnn2c(C)c1C,inactive
7,S=C(NCc1ccccc1)NC1CCSc2ccccc21 (configuration not stated),inactive
8,CCn1c(=O)n(CC)c2cc(S(=O)(=O)N3CCCCC3)c(C)cc21,"inconclusive: 4.61 µM [activator, partial curve]"
9,CC(=O)CSc1cc(C)nc2c(-c3ccccc3)c(C)nn12,inactive
10,CCOC(=O)NC(=O)c1cn(Nc2ccccc2C(F)(F)F)c(=O)[nH]c1=O,inactive
11,CC(C)c1nc(SCC(=O)N2CCCCCC2)c2c(=O)n(C)c(=O)n(C)c2n1,"inconclusive: 25.9 µM [inhibitor, single point]"
12,CC1Cc2ccccc2N1C(=O)CSc1nc2ccccc2s1 (configuration not stated),inactive
13,CCOCCCNC(=O)c1ccc2c(c1)N=C(CC)c1cc(Br)ccc1S2,"inconclusive: 29.1 µM [inhibitor, single point]"
14,CCCCn1c(-c2nonc2N)nc2ccccc21,"inconclusive: 20.6 µM [inhibitor, partial curve, poor fit]"
15,Cc1cccc(OCCNS(=O)(=O)c2ccc(Cl)cc2)c1,inactive
16,Cc1ccc2c(c1)[nH]c1c(N3CCN(Cc4ccccc4)CC3)ncnc12,active: 18.4 µM
17,Cc1ccccc1CSCCNC(=O)CN(c1ccc2c(c1)OCO2)S(C)(=O)=O,"inconclusive: 9.2 µM [inhibitor, partial curve, poor fit]"
18,CN1CCc2c(sc(/N=C/c3cccs3)c2C(N)=O)C1,"inconclusive: 20.6 µM [activator, single point]"
19,COCC(C)n1c(C)cc(C(=O)CSc2nnc(-c3ccco3)o2)c1C (configuration not stated),inactive
20,COc1cc(/C=N/NC(=O)c2ccc(O)cc2)ccc1Oc1ccc([N+](=O)[O-])cn1,inactive
21,COC(=O)c1ccc(CN2C(=O)C3CCCCC3C2=O)o1 (configuration not stated),"inconclusive: 4.61 µM [inhibitor, single point]"
22,Cc1cc(C)c(NC(=O)CS(=O)CC(=O)N2CCN(c3cccc(C)c3C)CC2)c(C)c1 (configuration not stated),"inconclusive: 20.6 µM [inhibitor, single point]"
23,CC(C)CN(C(=O)CN1CCN(c2ccc([N+](=O)[O-])cc2)CC1)c1c(N)n(CC(C)C)c(=O)[nH]c1=O,inactive
24,C/C(=N\N=C\c1ccc(N(C)C)cc1)c1cccc([N+](=O)[O-])c1,"inconclusive: 6.51 µM [activator, partial curve]"

# A different layout for part of the listing above:
row	Compound	Potency
18	CNc1nc(N)c(C(=O)Nc2cc(C)on2)s1	inconclusive: 14.6 µM [activator, partial curve]
19	Cc1c(CCO)c(=O)[nH]n1C(=O)c1c(F)cccc1F	inconclusive: 29.1 µM [activator, single point]
20	O=C(c1ccc(-c2ccccc2)cc1)N1CCN(c2ccccn2)CC1	inactive
